# This is a noisy data set.
# B1: human tRNA-Pro; a variant is named by its letters at N, in order (parent)
# chain: GGCTCGTTGGTCTAGNGGTATGATTCTCGCTTAGGGTGCGAGAGGTCCCGGGTTCNNATCCCGGACGAGCCC
# Variants of: B1
# Experiment: tRNA 3' processing efficiency (processed reads / all reads, maximum-likelihood estimate) (fraction); higher = more efficient 3' processing
# Settings: HEK293T; construct: no Pol-II promoter ((-)CMV library)
row,Variant,tRNA 3' processing efficiency
1,AAA G15A T53A A58G,0.33
2,CAG T8C A58T,0.29
3,TAT G9T T19C T59C,0.5
4,AAA T8C T19G A20T T53A T59A,0.33
5,CGA A20C T53G A58T,0.43
6,GGA G15T G17T T53A,0.25
7,AAA T8A G18C C55T T59G,0.2
8,CTC T8A A20T,0.33
9,GAA A14C T19C A58G,0.31
10,GAA G18A A20C T59G,0.5
11,GTA G18C A20T A58T,0.2
12,TCA A14G A58C,0.25
13,GAG A14T T19A A58G T59A,0.03
14,GTT T8C T59C,0.25
15,GAA T8C G9T A14T T59C,0.2
16,GAG T11A T19G,0.67
17,CAA A14T A20C T53A T54A,0.14
18,CAT G9T A14T G15C,0.5
19,AAA A33G,0.33
20,GAA A33G C39T A58T,0.25
21,GAA T19G T54A A58G T59G,0.4
22,GAC T19A T59C,0.29
23,GTA A14G A58T T59G,0.17
24,GAA A14G G15T T19A T59A,0.6

row,Variant,tRNA 3' processing efficiency
1,GAA T8C A14G A58C T59C,0.6
2,TCA T19G A41G T54A,0.4
3,GAA T8C A14T A58G T59G,0.5
4,GAA A14T G17T A20G A58G,0.57
5,GGA T19G T53A T59G,0.5
6,TGC A14G T53C,0.5
7,TAC A14C G15T A20T,0.25
8,CGA T53A A58T T59C,0.2
9,TAG T8G G15A A58G,0.2
10,GTA G9A A20T T59C,0.33
11,AAT T19C T59A,0.25
12,CAG G9A T19A T53A A58T,0.25
13,GGA T8G G15T T19G A58G,0.25
14,TAA G15C G17C A58G T59G,0.2
15,GAG T19C A58C,0.56
16,TAC A14T A20G,0.29
17,GAA G15C T19A A20T G52T T54C C55A A58T T59C,0.25
18,ATA T19G A20T T59C,0.2
19,GTC G15A A58T,0.17
20,GGG T19C T59C,0.7
21,GAC T8A G15T G17A G18C A58T,0.2
22,TAA G9T T19C T54A,0.5
23,GTA G15T G18A A58G T59G,0.25
24,GAA G15A G17A A58G T59A,0.5

# Part of the list above, reformatted.
row	Variant	tRNA 3' processing efficiency
17	CAA A14T A20C T53A T54A	0.14
21	GAA T19G T54A A58G T59G	0.4
6	TGC A14G T53C	0.5
9	TAG T8G G15A A58G	0.2

# Going on with the list.

row,Variant,tRNA 3' processing efficiency
1,GGC A14T T54A,0.5
2,TGA G9T C55T A58C,0.4
3,CAA T8C T19A T53A,0.72
4,ATG G17T,0.4
5,CTA G18T A58G,0.25
6,GAA T19A A20T T53G A58T,0.25
7,GAA A14T G52C T53C,0.4
8,GAA G9A G51A T59C,0.29
9,CCA A58C,0.25
10,GTG T19A A58G,0.25
11,ACA A14C T19A,0.39
12,CAA T19G A58T T59C,0.14
13,AAA A14C G18A A58G,0.25
14,GAA C55T G64A,0.25
15,CAA T8C G51A T59A,0.38
16,AAT G9T G15A,0.57
17,GAA A14T T19G A20T T59C,0.33
18,GGA G15C T53G A58G T59G,0.2
19,GGG T8C A58T,0.29
20,GAA T8G A14G G15A A58G,0.36
21,GTA G9A T19A A20G,0.38
22,GTG G15C A58G,0.25
23,GGA G9A G17A A58C,0.33
24,TAT A14T T19G,0.5

row,Variant,tRNA 3' processing efficiency
1,GGA G15T G17T T19G T53G,0.14
2,TTA T19C A58C,0.2
3,CAC A14C T59C,0.4
4,AAA T8C G9A A58C T59G,0.77
5,GAA G15C T19A T53G,0.25
6,CAA G9C G15C G17C C55T,0.6
7,GAT G45T T59C,0.2
8,CAA G15C A58G T59G,0.25
9,TAA G17T A58G T59A,0.4
10,TAA T19A C55A T59G,0.25
11,AAA G9T A20T C55T A58T,0.2
12,GAG T19G T46C A58T,0.4
13,GAC A14G G18T T19A,0.2
14,CAA G50T,0.11
15,GAA A14G G17A A20C T53A,0.33
16,TTT T59C,0.2
17,CGA C55T A58G T59C,0.2
18,ACA A14T G17T A20G C55T,0.57
19,AAC G1T C5T G6T A14C A58G,0.57
20,GAA A14G G50A,0.4
21,CAA C70G,0.25
22,GAA A14T A20C A33T A58G T59A,0.25
23,AAG G29A,0.25
24,AAA G18A T19C A20C A58T T59A,0.25

row,Variant,tRNA 3' processing efficiency
1,GCG T32C,0.67
2,GGA T8G G17C G18A T53A,0.58
3,GAA T8A G17A G18C T53C,0.25
4,CAT G9A A14C G18C,0.43
5,GTA A14G G15T G18A T19G A58T,0.4
6,GAT T8C T19A T59G,0.43
7,GGT T19C A20C T59A,0.2
8,GAT T8C A14G T59G,0.33
9,GTA T8C G15C T19G,0.4
10,AAA T19C A58T T59A,0.17
11,CCA T19C,0.2
12,GAA T8C A14G A20T T59C,0.25
13,GAA A14C T19A T53A,0.5
14,GGA T19C T53G A58T,0.33
15,GGA G15C A20T T53G,0.25
16,GGA A14C A20G A58T,0.25
17,ACA G9T T19G A58T T59C,0.43
18,CGG G9A T54A,0.14
19,GAG C70T,0.62
20,TAA G15C T19G T59A,0.2
21,AAG T8C G15T A58C,0.18
22,AGA C55T A58T,0.57
23,GAT A14G G15T G18C,0.82
24,GGA A14T T53A A58G,0.25

row,Variant,tRNA 3' processing efficiency
1,GGA T19C G50A,0.69
2,GTA G9A G15A A58G,0.21
3,CTA A14T A20T,0.31
4,CAA A33G,0.62
5,TAA A14T A20T T53A,0.29
6,TAA A33G T59A,0.29
7,TAA G15A A58G T59A,0.57
8,GCC A14T T19A A58G,0.2
9,GAA A14G T19A A20G T59C,0.57
10,GTA A14G G15A A20G,0.25
11,GTA A14T G17A G18A T59C,0.2
12,GTA T19C T59G,0.17
13,AAG A14G G15A,0.07
14,TTA T19A A20C,0.25
15,GTA T8G T59C,0.5
16,GGT A14C T19A,0.2
17,GTA G1T G2T C3T A58G,0.25
18,AAG A20G T59C,0.25
19,GAA G9T G17C G18T T53G,0.5
20,CAG T8C A14T,0.62
21,CTA A14T A58G,0.4
22,GTA A14T G17A G18C T19A T59G,0.43
23,GAA G15C G22A A58C,0.33
24,GAA A14C G17C T53A A58G,0.17

row,Variant,tRNA 3' processing efficiency
1,GAA A14T G15C G17A A58C,0.62
2,CGA G9A C55G,0.33
3,TGA G17T C55T T59C,0.4
4,GCA A14C T19A A20T,0.17
5,AAA T54C C55T A58G,0.33
6,GGA A14T T54A T59C,0.25
7,GGA A14T T19C A58T T59G,0.4
8,GAT G9T G38A,0.4
9,TAG T8G G18C A58G,0.75
10,GGA G9A A14G T19G T59G,0.17
11,GAA G1T G9A G15C,0.43
12,TAA T19G A58T T59G,0.2
13,CTA A33T A58G,0.73
14,TAC A14T A20G A58G,0.17
15,ATC A58T,0.4
16,TTA G17T A58C,0.4
17,GAA G9A G15A G17T T59C,0.57
18,GGA A20T T53A T59C,0.42
19,GGA G15A A33G A58T,0.33
20,GCA G2C C3T C5A,0.25
21,ATC G15A T19G,0.33
22,GAA T8C A14C T19C A58G T59G,0.25
23,GAG T8A G18C T19G A20C,0.25
24,GTA T8C A14T G18T T19A A58T,0.4

# A second format for part of the listing above.
row	Variant	tRNA 3' processing efficiency
9	TAG T8G G18C A58G	0.75
10	GGA G9A A14G T19G T59G	0.17

# (next part)

row,Variant,tRNA 3' processing efficiency
1,GTT A14C G15T G17C,0.5
2,TTA T8C G9A T19A A58T,0.43
3,ATG A58G T59A,0.86
4,CAA A14T A20T T59G,0.8
5,GTC G9A G18T,0.57
6,GTT T8A G15C,0.5
7,GTA T8C T19C T59G,0.2
8,CGG G17C,0.5
9,GAA A14G G18T A58T T59C,0.2
10,GGA A14G G18A T53G A58G,0.25
11,GTA T8C T19A G35A A58C,0.2
12,GAA G9A T19G T53G A58G T59G,0.83
13,GAA G9A A20T A33G,0.83
14,GAG A14G G15C G17C G18A A20T A58T,0.2
15,GGC G2A A14T A58T,0.8
16,GAA G9T A14G G18A T19G A58G T59C,0.4
17,GGA G51A T54A,0.38
18,GAC G9A A20G A58G,0.25
19,GAC A14T G15C T19G,0.4
20,GAA T8A A14C G15A G18C T53A A58T,0.2
21,GAA G9A A14C G15C T59G,0.25
22,CGA A14T T54G C55T A58C,0.25
23,CAA A20G T53C A58T,0.62
24,AAC A14G A20T,0.4

# Variants of: B1
# Experiment: tRNA 5' processing efficiency (processed reads / all reads, maximum-likelihood estimate) (fraction); higher = more efficient 5' processing
# Settings: HEK293T; construct: CMV Pol-II promoter ((+)CMV library, decapped)
row,Variant,tRNA 5' processing efficiency
1,CCA A58C,0.25
